Structures can show the parent of a compound that is named as a salt. The list shows a part of the results. Hit calls seldom repeat between salt and free forms of one compound.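 Kinases were expressed as nanoluciferase fusions in K562 cells and luminescence was read every 4 h between 2 and 18 h as percent of control, DMSO set to 100% and a positive control to 0%. A time point counts as decreased when the signal drops significantly (2 sigma). The hit call is the authors' own, does not follow from the count of time points alone, and its rule is not shown.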
Legend:
Assay in all cases: kinase-Nluc reporter destabilization hit call (1 = scored as downregulated) (binary); higher = compound decreases kinase abundance
Details in all cases: K562; 2-18 h
[1] = target: ABL1 (UniProt P00519)
[2] = target: AKT1 (UniProt P31749)
[3] = target: ALK (UniProt Q9UM73)
[4] = target: ARAF (UniProt P10398)
[5] = target: AURKA (UniProt O14965)
[6] = target: AURKB (UniProt Q96GD4)
[7] = target: AURKC (UniProt Q9UQB9)
[8] = target: BLK (UniProt P51451)
[9] = target: BMX (UniProt P51813)
[10] = target: BRAF (UniProt P15056)
[11] = system: BRAF_V600E
[12] = target: BTK (UniProt Q06187)
[13] = target: CAMK2A (UniProt Q9UQM7)
[14] = target: CAMK2G (UniProt Q13555)
[15] = target: CDK10 (UniProt Q15131)
[16] = target: CDK2 (UniProt P24941)
[17] = target: CDK3 (UniProt Q00526)
[18] = target: CDK4 (UniProt P11802)
[19] = target: CDK5 (UniProt Q00535)
[20] = target: CDK6 (UniProt Q00534)

By UniProt entry, the sequences of proteins in these tests, tags left out. Where a name states a change or a piece, a line headed by the entry shows the natural chain unless it says otherwise.
UniProt P00519, whole entry: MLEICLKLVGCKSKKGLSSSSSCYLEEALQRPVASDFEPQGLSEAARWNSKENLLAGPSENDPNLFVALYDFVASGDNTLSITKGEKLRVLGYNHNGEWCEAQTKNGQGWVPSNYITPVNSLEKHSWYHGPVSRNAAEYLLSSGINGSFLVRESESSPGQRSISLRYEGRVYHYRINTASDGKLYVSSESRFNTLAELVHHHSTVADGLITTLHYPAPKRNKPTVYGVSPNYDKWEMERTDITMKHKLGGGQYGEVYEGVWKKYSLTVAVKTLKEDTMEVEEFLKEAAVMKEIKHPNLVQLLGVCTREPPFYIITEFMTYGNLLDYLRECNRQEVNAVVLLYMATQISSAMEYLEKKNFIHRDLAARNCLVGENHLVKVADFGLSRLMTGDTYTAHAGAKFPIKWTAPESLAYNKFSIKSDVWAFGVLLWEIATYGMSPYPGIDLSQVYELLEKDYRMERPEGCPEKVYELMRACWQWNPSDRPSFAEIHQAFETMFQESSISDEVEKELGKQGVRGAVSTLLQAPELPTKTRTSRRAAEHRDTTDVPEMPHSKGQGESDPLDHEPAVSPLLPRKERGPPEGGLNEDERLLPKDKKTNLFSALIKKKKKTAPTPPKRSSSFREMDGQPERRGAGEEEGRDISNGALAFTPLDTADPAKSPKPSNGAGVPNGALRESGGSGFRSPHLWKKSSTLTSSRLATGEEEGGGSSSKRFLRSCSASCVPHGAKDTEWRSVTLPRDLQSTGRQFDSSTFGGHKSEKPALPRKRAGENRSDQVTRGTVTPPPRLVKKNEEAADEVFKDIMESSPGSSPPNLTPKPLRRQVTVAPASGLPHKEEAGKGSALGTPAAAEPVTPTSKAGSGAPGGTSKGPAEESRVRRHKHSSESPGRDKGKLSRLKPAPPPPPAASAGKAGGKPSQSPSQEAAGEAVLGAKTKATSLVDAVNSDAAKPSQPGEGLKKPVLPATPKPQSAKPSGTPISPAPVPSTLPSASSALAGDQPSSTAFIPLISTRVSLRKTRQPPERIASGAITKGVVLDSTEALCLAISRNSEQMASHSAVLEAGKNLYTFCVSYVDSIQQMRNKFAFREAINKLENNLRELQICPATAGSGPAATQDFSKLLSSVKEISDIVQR
UniProt P31749: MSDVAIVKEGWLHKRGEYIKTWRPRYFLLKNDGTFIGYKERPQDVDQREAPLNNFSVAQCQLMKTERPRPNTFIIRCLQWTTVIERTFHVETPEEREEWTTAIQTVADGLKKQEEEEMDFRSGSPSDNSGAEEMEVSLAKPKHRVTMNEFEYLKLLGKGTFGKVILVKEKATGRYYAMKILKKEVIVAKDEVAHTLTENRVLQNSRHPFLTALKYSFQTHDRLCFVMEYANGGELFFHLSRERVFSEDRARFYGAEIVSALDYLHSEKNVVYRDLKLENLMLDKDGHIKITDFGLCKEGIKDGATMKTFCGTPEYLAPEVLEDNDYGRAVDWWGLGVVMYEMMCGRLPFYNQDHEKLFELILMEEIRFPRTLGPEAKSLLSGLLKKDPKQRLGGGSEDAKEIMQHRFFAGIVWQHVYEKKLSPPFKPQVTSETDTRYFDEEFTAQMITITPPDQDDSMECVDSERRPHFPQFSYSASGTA
UniProt P10398: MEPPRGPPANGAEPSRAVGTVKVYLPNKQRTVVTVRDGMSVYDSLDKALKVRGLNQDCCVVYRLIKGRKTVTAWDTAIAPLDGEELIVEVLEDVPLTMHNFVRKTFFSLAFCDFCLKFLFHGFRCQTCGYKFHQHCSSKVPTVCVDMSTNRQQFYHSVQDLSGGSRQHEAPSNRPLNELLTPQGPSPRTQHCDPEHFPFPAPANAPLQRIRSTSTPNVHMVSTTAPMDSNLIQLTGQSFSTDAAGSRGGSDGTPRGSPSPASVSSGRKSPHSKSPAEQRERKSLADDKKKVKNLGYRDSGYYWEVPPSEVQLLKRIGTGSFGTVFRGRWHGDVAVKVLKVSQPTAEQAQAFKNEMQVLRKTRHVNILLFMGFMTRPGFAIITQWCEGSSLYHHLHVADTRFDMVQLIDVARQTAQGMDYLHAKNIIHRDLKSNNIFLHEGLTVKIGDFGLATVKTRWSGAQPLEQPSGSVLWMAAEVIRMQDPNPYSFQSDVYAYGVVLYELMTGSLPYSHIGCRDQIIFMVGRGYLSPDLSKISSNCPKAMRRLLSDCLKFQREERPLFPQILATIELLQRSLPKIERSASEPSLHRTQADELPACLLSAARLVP
UniProt O14965: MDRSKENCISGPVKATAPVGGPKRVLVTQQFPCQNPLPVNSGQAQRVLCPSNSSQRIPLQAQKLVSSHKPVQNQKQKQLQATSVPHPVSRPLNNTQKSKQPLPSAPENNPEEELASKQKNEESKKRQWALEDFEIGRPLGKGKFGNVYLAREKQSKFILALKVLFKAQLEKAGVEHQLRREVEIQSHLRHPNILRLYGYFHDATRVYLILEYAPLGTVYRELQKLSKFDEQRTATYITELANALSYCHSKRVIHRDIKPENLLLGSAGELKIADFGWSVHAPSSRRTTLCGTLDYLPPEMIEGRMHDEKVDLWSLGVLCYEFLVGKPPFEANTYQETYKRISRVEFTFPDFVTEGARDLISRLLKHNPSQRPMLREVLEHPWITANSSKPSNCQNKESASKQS
UniProt Q96GD4, whole entry: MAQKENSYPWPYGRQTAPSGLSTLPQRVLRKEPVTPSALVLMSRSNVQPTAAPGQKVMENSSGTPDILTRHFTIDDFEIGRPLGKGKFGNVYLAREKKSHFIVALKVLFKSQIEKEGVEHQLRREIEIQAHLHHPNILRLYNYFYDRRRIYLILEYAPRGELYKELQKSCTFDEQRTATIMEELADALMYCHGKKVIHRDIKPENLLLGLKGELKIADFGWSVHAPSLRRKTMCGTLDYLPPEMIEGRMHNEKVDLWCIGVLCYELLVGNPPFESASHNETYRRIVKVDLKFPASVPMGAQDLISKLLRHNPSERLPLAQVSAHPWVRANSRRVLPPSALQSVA
UniProt Q9UQB9: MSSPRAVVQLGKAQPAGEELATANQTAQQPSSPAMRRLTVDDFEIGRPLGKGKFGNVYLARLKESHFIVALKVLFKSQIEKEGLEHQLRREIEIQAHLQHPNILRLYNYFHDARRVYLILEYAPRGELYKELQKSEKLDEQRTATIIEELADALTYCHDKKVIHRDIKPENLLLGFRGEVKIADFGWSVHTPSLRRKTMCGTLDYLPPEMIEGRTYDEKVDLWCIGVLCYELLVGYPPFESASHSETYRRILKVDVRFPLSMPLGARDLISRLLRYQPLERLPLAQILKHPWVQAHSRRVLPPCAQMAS
UniProt P51813: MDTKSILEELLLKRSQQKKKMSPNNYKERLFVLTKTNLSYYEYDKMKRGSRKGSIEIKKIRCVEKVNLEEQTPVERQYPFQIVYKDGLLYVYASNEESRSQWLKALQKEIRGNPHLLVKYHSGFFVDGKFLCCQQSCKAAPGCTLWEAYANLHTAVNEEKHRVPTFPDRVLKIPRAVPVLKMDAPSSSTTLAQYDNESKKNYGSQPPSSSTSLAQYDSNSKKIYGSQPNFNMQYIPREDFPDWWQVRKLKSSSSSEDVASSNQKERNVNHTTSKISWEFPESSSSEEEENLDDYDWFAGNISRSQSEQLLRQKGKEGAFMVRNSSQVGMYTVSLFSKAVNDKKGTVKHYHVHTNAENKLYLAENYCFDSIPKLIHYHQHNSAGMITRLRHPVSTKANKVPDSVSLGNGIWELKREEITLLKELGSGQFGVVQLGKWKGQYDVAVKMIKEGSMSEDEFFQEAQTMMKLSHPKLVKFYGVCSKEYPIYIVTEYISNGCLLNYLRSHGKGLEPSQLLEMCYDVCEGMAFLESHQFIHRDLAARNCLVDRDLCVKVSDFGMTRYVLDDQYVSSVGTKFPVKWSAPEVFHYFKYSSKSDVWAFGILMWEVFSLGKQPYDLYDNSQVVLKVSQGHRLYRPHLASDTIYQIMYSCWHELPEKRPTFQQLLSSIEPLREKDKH
UniProt P15056, whole entry, looked up: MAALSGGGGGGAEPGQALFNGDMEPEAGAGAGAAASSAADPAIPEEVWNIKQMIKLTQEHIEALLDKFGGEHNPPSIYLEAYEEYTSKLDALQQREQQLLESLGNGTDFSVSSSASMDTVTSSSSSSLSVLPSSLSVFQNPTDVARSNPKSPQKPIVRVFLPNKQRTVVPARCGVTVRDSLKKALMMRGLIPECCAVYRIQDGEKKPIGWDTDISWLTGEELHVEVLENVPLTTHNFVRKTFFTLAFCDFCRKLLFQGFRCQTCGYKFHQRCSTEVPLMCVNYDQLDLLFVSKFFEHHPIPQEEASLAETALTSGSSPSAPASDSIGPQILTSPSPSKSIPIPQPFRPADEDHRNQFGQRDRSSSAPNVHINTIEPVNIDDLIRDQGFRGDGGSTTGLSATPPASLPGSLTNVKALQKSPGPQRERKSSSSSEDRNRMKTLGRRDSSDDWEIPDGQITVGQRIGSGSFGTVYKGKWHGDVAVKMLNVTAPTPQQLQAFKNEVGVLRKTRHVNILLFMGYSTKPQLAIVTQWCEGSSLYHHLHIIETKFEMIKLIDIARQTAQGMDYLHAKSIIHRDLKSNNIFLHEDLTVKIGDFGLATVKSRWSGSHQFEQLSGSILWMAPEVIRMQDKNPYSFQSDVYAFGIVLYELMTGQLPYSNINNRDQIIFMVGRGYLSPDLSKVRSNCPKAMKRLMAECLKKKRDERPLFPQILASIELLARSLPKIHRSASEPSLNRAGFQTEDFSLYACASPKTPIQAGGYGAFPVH
UniProt Q06187: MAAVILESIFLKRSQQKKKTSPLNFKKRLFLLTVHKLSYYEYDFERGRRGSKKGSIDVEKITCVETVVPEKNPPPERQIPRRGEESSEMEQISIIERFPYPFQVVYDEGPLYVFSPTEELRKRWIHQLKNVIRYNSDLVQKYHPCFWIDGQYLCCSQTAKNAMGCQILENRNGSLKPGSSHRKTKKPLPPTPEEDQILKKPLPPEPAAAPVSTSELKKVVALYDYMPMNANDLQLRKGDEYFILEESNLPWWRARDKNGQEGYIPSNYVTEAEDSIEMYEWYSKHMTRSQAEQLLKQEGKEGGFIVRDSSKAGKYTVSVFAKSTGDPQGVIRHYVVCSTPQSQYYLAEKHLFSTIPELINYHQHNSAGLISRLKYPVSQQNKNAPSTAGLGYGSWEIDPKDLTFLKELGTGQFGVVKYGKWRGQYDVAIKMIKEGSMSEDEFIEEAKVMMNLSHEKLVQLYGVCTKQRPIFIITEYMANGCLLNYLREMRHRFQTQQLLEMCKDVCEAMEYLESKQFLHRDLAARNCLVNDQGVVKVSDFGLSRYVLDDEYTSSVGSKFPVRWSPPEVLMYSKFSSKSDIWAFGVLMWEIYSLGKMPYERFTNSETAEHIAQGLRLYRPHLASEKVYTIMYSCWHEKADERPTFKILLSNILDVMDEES
UniProt Q15131: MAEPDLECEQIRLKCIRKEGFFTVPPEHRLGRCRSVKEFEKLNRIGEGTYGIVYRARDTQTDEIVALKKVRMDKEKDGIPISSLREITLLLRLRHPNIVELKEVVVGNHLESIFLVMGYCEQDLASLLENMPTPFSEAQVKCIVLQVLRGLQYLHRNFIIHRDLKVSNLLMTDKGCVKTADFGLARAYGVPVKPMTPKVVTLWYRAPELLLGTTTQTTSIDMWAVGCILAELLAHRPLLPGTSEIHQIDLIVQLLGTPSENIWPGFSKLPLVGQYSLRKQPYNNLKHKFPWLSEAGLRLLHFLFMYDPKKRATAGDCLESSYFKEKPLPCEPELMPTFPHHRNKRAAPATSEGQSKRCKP
UniProt Q00526: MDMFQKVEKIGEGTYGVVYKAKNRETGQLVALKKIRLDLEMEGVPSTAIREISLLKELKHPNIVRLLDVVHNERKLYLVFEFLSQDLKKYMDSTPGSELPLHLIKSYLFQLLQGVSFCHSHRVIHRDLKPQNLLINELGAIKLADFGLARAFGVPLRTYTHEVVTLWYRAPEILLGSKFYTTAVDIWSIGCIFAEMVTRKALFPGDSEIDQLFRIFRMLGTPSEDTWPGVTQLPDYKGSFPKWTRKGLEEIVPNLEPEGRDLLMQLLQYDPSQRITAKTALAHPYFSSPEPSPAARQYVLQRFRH
UniProt Q00534, whole entry: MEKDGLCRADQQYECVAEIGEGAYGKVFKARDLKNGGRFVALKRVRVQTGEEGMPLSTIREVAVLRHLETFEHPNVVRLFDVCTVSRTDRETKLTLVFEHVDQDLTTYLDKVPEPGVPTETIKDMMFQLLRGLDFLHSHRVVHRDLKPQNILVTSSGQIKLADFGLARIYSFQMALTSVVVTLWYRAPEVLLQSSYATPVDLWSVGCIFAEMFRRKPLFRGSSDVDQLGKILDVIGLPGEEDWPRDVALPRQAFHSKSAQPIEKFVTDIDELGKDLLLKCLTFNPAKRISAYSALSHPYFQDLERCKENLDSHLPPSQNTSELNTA

Measured: kinase-Nluc reporter destabilization hit call

CN1CCN(Cc2ccc(-c3cn(C4CCC(O)CC4)c4nc(NCCC5CC5)ncc34)cc2)CC1 (stereo not given) (2.5 µM)
inactive: [1] 0 | [2] 0 | [3] 0 | [4] 0 | [5] 0 | [6] 0 | [7] 0 | [8] 0 | [9] 0 | [10] 0 | [11] 0 | [12] 0 | [13] 0 | [14] 0 | [15] 0 | [16] 0 | [17] 0 | [18] 0 | [19] 0 | [20] 0

CC(=O)Nc1nc(C)c(-c2cc(C)c3c(c2)CN([C@@H](C)C2CC2)C3=O)s1 (10 µM)
inactive: [1] 0 | [2] 0 | [3] 0 | [4] 0 | [5] 0 | [6] 0 | [7] 0 | [8] 0 | [9] 0 | [10] 0 | [11] 0 | [12] 0 | [13] 0 | [14] 0 | [15] 0 | [16] 0 | [17] 0 | [18] 0 | [19] 0 | [20] 0

CCCCNc1ncc2c(-c3ccc(F)cc3)nn(CC3CCC(N)CC3)c2n1 (stereo not given) (2.5 µM)
inactive: [1] 0 | [2] 0 | [3] 0 | [4] 0 | [5] 0 | [6] 0 | [7] 0 | [8] 0 | [9] 0 | [10] 0 | [11] 0 | [12] 0 | [13] 0 | [14] 0 | [15] 0 | [16] 0 | [17] 0 | [18] 0 | [19] 0 | [20] 0

CC(ONC(=O)c1cc(C(F)(F)F)cc(C(F)(F)F)c1)C(=O)Nc1ccc(Cl)cc1 (stereo not given) (2.5 µM)
inactive: [1] 0 | [2] 0 | [3] 0 | [4] 0 | [5] 0 | [6] 0 | [7] 0 | [8] 0 | [10] 0 | [11] 0 | [12] 0 | [13] 0 | [14] 0 | [15] 0 | [16] 0 | [17] 0 | [18] 0 | [19] 0 | [20] 0
active: [9] 1

CNCc1ccccc1Sc1cccc2ccccc12 [IFN alpha-IFNAR-IN-1 (hydrochloride)] (10 µM)
inactive: [1] 0 | [2] 0 | [3] 0 | [4] 0 | [5] 0 | [6] 0 | [7] 0 | [8] 0 | [9] 0 | [10] 0 | [11] 0 | [12] 0 | [13] 0 | [14] 0 | [15] 0 | [16] 0 | [17] 0 | [18] 0 | [19] 0 | [20] 0

Retrieved one by one from the list above (2):
CCCCNc1ncc2c(-c3ccc(F)cc3)nn(CC3CCC(N)CC3)c2n1 (stereo not given) (2.5 µM)
inactive: [1] 0 | [2] 0 | [3] 0 | [4] 0 | [5] 0 | [6] 0 | [7] 0 | [8] 0 | [9] 0 | [10] 0 | [11] 0 | [12] 0 | [13] 0 | [14] 0 | [15] 0 | [16] 0 | [17] 0 | [18] 0 | [19] 0 | [20] 0

CN1CCN(Cc2ccc(-c3cn(C4CCC(O)CC4)c4nc(NCCC5CC5)ncc34)cc2)CC1 (stereo not given) (2.5 µM)
inactive: [1] 0 | [2] 0 | [3] 0 | [4] 0 | [5] 0 | [6] 0 | [7] 0 | [8] 0 | [9] 0 | [10] 0 | [11] 0 | [12] 0 | [13] 0 | [14] 0 | [15] 0 | [16] 0 | [17] 0 | [18] 0 | [19] 0 | [20] 0

Further compounds.

O=c1cc(-c2ccc(O[C@@H]3O[C@H](CO)[C@@H](O)[C@H](O)[C@H]3O)cc2)oc2cc(O)c([C@@H]3O[C@H](CO)[C@@H](O)[C@H](O)[C@H]3O[C@@H]3OC[C@H](O)[C@H](O)[C@H]3O)c(O)c12 [Vaccarin] (10 µM)
inactive: [1] 0 | [2] 0 | [3] 0 | [4] 0 | [5] 0 | [6] 0 | [7] 0 | [8] 0 | [9] 0 | [10] 0 | [11] 0 | [12] 0 | [13] 0 | [14] 0 | [15] 0 | [16] 0 | [17] 0 | [18] 0 | [19] 0 | [20] 0

O=C(O)/C=C(\CCc1ccc(Cl)cc1)c1ccccc1 (10 µM)
inactive: [1] 0 | [2] 0 | [3] 0 | [4] 0 | [5] 0 | [6] 0 | [7] 0 | [8] 0 | [9] 0 | [10] 0 | [11] 0 | [12] 0 | [13] 0 | [14] 0 | [15] 0 | [16] 0 | [17] 0 | [18] 0 | [19] 0 | [20] 0

CCOc1cc(=O)[nH]cc1-c1ccc(CC(=O)Nc2cc(C(C)(C)C(F)(F)F)on2)c(F)c1 (10 µM)
inactive: [1] 0 | [2] 0 | [3] 0 | [4] 0 | [5] 0 | [6] 0 | [7] 0 | [8] 0 | [9] 0 | [10] 0 | [11] 0 | [12] 0 | [13] 0 | [14] 0 | [15] 0 | [16] 0 | [17] 0 | [18] 0 | [19] 0 | [20] 0

C[C@H](Nc1cc2c(-c3ccc4c(c3)OCO4)noc2cn1)c1ccccc1 (10 µM)
inactive: [1] 0 | [2] 0 | [3] 0 | [4] 0 | [5] 0 | [6] 0 | [7] 0 | [8] 0 | [9] 0 | [10] 0 | [11] 0 | [12] 0 | [13] 0 | [14] 0 | [15] 0 | [16] 0 | [17] 0 | [18] 0 | [19] 0 | [20] 0

Nc1[nH]nc2nnc(-c3c(-c4ccccc4)nn4ccccc34)cc12 (10 µM)
inactive: [1] 0 | [2] 0 | [3] 0 | [4] 0 | [5] 0 | [6] 0 | [7] 0 | [8] 0 | [9] 0 | [10] 0 | [11] 0 | [12] 0 | [13] 0 | [14] 0 | [15] 0 | [16] 0 | [17] 0 | [18] 0 | [19] 0 | [20] 0

CNCc1cc(Oc2ccc3c(ccn3C(=O)Nc3cc(C(F)(F)F)n(C)n3)c2)ncn1 [Acrizanib] (10 µM)
inactive: [1] 0 | [2] 0 | [3] 0 | [4] 0 | [5] 0 | [6] 0 | [7] 0 | [8] 0 | [9] 0 | [10] 0 | [11] 0 | [12] 0 | [13] 0 | [14] 0 | [15] 0 | [16] 0 | [17] 0 | [18] 0 | [19] 0 | [20] 0

Cc1nn(CC(F)(F)F)cc1Nc1ncc(Br)c(NCc2ccc(S(N)(=O)=O)cc2)n1 (10 µM)
inactive: [1] 0 | [2] 0 | [3] 0 | [4] 0 | [5] 0 | [6] 0 | [7] 0 | [8] 0 | [9] 0 | [10] 0 | [11] 0 | [12] 0 | [13] 0 | [14] 0 | [15] 0 | [16] 0 | [17] 0 | [18] 0 | [19] 0 | [20] 0

Cc1cnc(Nc2ccc(F)cc2Cl)nc1-c1c[nH]c(C(=O)N[C@H](CO)c2cccc(Cl)c2)c1 (10 µM)
inactive: [1] 0 | [2] 0 | [3] 0 | [4] 0 | [5] 0 | [6] 0 | [7] 0 | [8] 0 | [9] 0 | [10] 0 | [11] 0 | [12] 0 | [13] 0 | [14] 0 | [15] 0 | [16] 0 | [17] 0 | [18] 0 | [19] 0 | [20] 0

O=C(Nc1ccnc(NC(=O)C2CC2)c1)c1c(Cl)cccc1Cl (10 µM)
inactive: [1] 0 | [2] 0 | [3] 0 | [4] 0 | [5] 0 | [6] 0 | [7] 0 | [8] 0 | [9] 0 | [10] 0 | [11] 0 | [12] 0 | [13] 0 | [14] 0 | [15] 0 | [16] 0 | [17] 0 | [18] 0 | [19] 0 | [20] 0

O=C(COc1ccc(Cl)cc1)NC1CCC(NC(=O)COc2ccc(Cl)cc2)CC1 (stereo not drawn) [ISRIB (trans-isomer)] (10 µM)
inactive: [1] 0 | [2] 0 | [3] 0 | [4] 0 | [5] 0 | [6] 0 | [7] 0 | [8] 0 | [9] 0 | [10] 0 | [11] 0 | [12] 0 | [13] 0 | [14] 0 | [15] 0 | [16] 0 | [17] 0 | [18] 0 | [19] 0 | [20] 0

C[C@@H]1CN(Cc2ccc(F)cc2)[C@@H](C)CN1C(=O)c1cc2c(C(=O)C(=O)N(C)C)cn(C)c2cc1Cl [Talmapimod] (10 µM)
inactive: [1] 0 | [2] 0 | [3] 0 | [4] 0 | [5] 0 | [6] 0 | [7] 0 | [8] 0 | [9] 0 | [10] 0 | [11] 0 | [12] 0 | [13] 0 | [14] 0 | [15] 0 | [16] 0 | [17] 0 | [18] 0 | [19] 0 | [20] 0

O=c1c(O)c(-c2ccc(O)c(O)c2)oc2cc(O)c(O)c(O)c12 [Quercetagetin] (10 µM)
inactive: [1] 0 | [2] 0 | [3] 0 | [4] 0 | [5] 0 | [6] 0 | [7] 0 | [8] 0 | [9] 0 | [10] 0 | [11] 0 | [12] 0 | [13] 0 | [14] 0 | [15] 0 | [16] 0 | [17] 0 | [18] 0 | [19] 0 | [20] 0

CC1(C)C=Cc2c(ccc(C(=O)/C=C/c3ccc(O)cc3)c2O)O1 [4-Hydroxylonchocarpin] (10 µM)
active: [8] 1
inactive: [1] 0 | [2] 0 | [3] 0 | [4] 0 | [5] 0 | [6] 0 | [7] 0 | [9] 0 | [10] 0 | [11] 0 | [12] 0 | [13] 0 | [14] 0 | [15] 0 | [16] 0 | [17] 0 | [18] 0 | [19] 0 | [20] 0

Reference: the supplement of paper PMC12823440, “Inhibitors supercharge kinase turnover through native proteolytic circuits” (Nature, 2025)
